Source: article PMC12058146
These are yes or no findings as the source states them, for the method shown. In cells and extracts the contact can be indirect. Some binding calls cover weakened binding; strength is not graded here. For some assays here: Tags and fused reporters may be left off the sequences shown.

The chains behind the UniProt entries cited, without tags or fusion partners. Where a name states a change or a piece, a line headed by the entry shows the natural chain unless it says otherwise. A line that says so, or that is headed by a name, gives the form on record, which may keep a tag or linker.
UniProt A1ZAW0: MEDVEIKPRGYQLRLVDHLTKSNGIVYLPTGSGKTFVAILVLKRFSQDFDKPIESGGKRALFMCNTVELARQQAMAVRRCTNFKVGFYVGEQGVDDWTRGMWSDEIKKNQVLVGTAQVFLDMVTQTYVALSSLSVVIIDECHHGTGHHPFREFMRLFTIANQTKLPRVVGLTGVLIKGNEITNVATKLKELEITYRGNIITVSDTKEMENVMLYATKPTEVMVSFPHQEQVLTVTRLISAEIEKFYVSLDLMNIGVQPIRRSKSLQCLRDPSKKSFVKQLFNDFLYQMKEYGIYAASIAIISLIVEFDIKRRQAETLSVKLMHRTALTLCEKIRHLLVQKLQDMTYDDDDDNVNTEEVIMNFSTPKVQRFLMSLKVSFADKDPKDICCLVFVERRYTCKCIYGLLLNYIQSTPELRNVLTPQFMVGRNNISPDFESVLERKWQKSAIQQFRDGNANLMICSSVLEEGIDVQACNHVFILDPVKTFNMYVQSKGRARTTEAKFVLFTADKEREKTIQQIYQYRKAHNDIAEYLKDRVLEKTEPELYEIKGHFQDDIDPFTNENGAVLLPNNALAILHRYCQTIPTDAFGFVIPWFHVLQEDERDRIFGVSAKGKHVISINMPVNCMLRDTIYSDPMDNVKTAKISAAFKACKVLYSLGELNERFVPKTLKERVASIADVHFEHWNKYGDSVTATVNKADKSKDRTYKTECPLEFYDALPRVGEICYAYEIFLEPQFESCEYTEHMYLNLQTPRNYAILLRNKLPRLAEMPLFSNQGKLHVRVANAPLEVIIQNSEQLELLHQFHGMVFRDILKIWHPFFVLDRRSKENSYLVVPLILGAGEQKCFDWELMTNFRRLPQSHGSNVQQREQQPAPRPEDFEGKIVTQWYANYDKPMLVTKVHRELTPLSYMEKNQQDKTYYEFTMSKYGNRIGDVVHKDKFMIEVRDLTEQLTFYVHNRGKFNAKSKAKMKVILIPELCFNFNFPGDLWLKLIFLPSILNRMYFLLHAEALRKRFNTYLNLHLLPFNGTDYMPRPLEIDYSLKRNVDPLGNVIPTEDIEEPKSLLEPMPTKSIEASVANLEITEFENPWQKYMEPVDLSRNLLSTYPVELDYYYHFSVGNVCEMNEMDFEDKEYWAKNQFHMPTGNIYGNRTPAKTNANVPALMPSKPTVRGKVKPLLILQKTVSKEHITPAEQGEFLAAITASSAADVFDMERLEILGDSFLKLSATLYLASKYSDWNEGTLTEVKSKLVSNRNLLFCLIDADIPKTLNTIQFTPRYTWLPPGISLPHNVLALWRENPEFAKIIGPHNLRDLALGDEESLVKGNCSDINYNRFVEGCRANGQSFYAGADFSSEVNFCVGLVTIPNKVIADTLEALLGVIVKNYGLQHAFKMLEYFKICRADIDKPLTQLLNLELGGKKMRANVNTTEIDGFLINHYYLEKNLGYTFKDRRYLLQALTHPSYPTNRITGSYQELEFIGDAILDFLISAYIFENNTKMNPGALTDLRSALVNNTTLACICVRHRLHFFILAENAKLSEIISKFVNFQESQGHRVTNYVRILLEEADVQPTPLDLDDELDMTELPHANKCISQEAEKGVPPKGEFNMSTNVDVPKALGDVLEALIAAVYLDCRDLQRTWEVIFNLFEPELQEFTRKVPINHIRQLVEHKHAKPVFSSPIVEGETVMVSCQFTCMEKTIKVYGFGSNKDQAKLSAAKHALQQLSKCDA
GFP::Dicer-2^Hel1 (A1ZAW0, form named): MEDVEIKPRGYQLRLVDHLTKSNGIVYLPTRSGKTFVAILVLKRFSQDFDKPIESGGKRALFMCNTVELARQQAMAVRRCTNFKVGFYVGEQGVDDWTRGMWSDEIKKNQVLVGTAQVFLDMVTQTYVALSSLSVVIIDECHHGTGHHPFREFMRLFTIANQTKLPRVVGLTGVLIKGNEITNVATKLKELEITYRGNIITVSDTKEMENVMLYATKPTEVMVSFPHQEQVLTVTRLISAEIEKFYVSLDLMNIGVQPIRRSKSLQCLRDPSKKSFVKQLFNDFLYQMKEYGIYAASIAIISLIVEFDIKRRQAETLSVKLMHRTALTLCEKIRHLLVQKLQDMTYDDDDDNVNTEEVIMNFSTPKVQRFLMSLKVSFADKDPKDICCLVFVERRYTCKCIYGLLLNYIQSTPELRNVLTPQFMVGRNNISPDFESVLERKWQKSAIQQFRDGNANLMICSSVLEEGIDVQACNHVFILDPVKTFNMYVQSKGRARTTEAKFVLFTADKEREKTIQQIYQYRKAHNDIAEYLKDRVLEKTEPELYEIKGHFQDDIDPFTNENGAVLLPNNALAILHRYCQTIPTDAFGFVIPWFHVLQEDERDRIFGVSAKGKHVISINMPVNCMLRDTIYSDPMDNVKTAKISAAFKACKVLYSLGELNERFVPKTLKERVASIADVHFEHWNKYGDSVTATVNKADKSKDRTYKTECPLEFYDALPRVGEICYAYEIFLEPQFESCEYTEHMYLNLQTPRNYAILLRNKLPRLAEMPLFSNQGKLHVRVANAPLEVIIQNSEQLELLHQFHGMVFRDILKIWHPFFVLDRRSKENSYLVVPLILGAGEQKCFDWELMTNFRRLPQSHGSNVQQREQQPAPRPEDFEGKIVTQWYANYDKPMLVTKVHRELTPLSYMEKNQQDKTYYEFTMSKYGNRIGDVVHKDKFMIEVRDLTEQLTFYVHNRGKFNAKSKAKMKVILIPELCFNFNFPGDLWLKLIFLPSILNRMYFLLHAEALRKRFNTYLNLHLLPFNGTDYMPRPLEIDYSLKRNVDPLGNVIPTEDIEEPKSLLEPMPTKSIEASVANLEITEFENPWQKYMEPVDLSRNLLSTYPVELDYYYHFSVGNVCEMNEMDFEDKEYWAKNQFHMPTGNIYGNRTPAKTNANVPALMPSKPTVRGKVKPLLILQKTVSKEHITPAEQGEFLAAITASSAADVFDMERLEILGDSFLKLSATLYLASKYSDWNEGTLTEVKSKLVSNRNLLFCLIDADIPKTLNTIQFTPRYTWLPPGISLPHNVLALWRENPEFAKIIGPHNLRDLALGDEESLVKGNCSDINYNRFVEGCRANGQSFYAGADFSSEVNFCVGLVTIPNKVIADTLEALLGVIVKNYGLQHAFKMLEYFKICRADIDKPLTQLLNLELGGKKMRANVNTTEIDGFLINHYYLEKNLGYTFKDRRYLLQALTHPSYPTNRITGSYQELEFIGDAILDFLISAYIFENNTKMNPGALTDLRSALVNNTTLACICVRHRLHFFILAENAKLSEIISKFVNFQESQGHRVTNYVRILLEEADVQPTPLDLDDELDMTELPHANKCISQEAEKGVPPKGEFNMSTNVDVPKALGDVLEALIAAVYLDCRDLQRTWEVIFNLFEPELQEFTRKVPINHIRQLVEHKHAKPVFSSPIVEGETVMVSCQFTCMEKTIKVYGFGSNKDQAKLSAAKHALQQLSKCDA
UniProt O61380: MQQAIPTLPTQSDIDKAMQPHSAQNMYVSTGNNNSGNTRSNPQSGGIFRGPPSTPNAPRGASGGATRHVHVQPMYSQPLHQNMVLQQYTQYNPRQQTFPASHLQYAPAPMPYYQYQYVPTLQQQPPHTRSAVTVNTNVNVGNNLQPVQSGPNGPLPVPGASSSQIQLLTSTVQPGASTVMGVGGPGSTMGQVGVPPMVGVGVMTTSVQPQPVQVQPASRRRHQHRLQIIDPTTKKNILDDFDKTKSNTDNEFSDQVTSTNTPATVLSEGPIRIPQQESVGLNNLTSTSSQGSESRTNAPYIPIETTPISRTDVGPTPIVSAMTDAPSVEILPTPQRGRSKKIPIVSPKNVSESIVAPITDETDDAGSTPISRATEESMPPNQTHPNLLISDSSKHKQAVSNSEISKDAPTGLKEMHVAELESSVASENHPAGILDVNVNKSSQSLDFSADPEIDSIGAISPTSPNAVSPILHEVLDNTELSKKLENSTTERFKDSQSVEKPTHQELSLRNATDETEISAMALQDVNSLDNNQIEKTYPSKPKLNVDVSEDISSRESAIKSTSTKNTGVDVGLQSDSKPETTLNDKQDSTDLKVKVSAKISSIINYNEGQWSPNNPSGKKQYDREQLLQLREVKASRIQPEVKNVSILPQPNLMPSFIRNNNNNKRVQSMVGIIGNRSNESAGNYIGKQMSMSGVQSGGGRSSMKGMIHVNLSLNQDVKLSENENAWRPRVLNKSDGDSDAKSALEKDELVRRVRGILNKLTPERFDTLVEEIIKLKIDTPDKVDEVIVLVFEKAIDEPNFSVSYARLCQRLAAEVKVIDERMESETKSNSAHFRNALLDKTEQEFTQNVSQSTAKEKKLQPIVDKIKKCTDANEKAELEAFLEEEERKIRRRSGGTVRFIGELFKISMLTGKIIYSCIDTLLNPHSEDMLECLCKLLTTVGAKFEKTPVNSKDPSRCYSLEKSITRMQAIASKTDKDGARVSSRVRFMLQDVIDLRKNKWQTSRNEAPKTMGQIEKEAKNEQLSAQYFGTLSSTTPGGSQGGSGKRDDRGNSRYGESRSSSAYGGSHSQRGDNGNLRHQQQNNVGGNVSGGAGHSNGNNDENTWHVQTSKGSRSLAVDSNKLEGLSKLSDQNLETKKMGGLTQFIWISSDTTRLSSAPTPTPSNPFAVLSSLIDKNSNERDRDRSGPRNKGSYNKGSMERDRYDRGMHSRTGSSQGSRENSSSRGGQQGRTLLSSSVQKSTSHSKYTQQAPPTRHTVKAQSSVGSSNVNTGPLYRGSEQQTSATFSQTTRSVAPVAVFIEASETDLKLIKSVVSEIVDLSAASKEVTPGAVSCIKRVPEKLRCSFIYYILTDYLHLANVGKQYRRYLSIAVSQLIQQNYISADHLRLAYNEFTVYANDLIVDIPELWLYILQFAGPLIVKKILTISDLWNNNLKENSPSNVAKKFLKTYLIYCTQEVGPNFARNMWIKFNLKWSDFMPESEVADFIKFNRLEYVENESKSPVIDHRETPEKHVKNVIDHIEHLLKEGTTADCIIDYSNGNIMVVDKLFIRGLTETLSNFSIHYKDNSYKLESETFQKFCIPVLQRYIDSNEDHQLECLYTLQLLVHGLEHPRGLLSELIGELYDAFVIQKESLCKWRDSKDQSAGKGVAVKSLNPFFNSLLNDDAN

T1: GFP-Me31B (Drosophila melanogaster) (UniProt P23128)
T1 sequence: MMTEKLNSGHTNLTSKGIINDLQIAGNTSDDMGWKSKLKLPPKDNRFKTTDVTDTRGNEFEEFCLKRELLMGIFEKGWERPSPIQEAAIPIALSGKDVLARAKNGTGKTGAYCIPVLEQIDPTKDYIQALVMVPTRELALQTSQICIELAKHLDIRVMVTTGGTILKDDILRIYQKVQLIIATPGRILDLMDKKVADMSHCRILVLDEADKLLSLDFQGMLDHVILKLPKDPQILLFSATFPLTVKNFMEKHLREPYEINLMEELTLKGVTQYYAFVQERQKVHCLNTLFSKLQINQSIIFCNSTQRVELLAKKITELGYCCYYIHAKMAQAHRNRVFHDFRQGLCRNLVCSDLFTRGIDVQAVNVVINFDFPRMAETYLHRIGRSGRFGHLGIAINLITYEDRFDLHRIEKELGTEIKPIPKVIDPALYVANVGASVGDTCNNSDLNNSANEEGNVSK


Tests used:
[1] = molecular target: T1, GFP-Me31B (Drosophila melanogaster); assay: co-IP; tagged proteins ectopically expressed in S2 cells; immunoprecipitation of the GFP-tagged protein, western blot
[2] = molecular target: GFP-Dicer-2 (S2 cells) (Drosophila melanogaster) (UniProt A1ZAW0); assay: as above
[3] = molecular target: GFP::Dicer-2^WT (Drosophila melanogaster) (UniProt A1ZAW0); assay: co-IP; as a4, lysate treated with RNase A (15 µg, 30 min at 4°C) before the anti-GFP IP
[4] = molecular target: GFP::Dicer-2^Hel1 (Drosophila melanogaster) (UniProt A1ZAW0); assay: co-IP; anti-GFP beads (Miltenyi or Chromotek agarose) on lysates of adult flies, non-infected or DCV-infected; western blot with antibodies to the endogenous proteins; against Ctrl-GFP or Ctrl-WT
[5] = molecular target: GFP::Dicer-2^WT (Drosophila melanogaster) (UniProt A1ZAW0); assay: as above

binding [1]	binding [2]	binding [3]	binding [4]	binding [5]	Molecule
binds	–	–	–	–	Flag-Dicer-2 (from UniProt A1ZAW0 1-1722) (enzyme)
–	binds	–	–	–	HA-eIF4G1 (from UniProt O61380 1-1666)
–	–	binds	binds	binds	eIF4E1 (protein, UniProt P48598 1-259) MQSDFHRMKNFANPKSMFKTSAPSTEQGRPEPPTSAAAPAEAKDVKPKEDPQETGEPAGNTATTTAPAGDDAVRTEHLYKHPLMNVWTLWYLENDRSKSWEDMQNEITSFDTVEDFWSLYNHIKPPSEIKLGSDYSLFKKNIRPMWEDAANKQGGRWVITLNKSSKTDLDNLWLDVLLCLIGEAFDHSDQICGAVINIRGKSNKISIWTADGNNEEAALEIGHKLRDALRLGRNNSLQYQLHKDTMVKQGSNVKSIYTL
–	–	binds	binds	binds	Me31B (protein, UniProt P23128 1-459) MMTEKLNSGHTNLTSKGIINDLQIAGNTSDDMGWKSKLKLPPKDNRFKTTDVTDTRGNEFEEFCLKRELLMGIFEKGWERPSPIQEAAIPIALSGKDVLARAKNGTGKTGAYCIPVLEQIDPTKDYIQALVMVPTRELALQTSQICIELAKHLDIRVMVTTGGTILKDDILRIYQKVQLIIATPGRILDLMDKKVADMSHCRILVLDEADKLLSLDFQGMLDHVILKLPKDPQILLFSATFPLTVKNFMEKHLREPYEINLMEELTLKGVTQYYAFVQERQKVHCLNTLFSKLQINQSIIFCNSTQRVELLAKKITELGYCCYYIHAKMAQAHRNRVFHDFRQGLCRNLVCSDLFTRGIDVQAVNVVINFDFPRMAETYLHRIGRSGRFGHLGIAINLITYEDRFDLHRIEKELGTEIKPIPKVIDPALYVANVGASVGDTCNNSDLNNSANEEGNVSK
